Paper doi:10.1101/2020.08.20.259994
Results are given in words; binding and its absence hold for the method and conditions named. In cells and extracts the contact can be indirect. Some binding calls cover weakened binding; strength is not graded here.

Protein sequences, listed by entry. Tags and fused reporters are not part of them.
UniProt P35820: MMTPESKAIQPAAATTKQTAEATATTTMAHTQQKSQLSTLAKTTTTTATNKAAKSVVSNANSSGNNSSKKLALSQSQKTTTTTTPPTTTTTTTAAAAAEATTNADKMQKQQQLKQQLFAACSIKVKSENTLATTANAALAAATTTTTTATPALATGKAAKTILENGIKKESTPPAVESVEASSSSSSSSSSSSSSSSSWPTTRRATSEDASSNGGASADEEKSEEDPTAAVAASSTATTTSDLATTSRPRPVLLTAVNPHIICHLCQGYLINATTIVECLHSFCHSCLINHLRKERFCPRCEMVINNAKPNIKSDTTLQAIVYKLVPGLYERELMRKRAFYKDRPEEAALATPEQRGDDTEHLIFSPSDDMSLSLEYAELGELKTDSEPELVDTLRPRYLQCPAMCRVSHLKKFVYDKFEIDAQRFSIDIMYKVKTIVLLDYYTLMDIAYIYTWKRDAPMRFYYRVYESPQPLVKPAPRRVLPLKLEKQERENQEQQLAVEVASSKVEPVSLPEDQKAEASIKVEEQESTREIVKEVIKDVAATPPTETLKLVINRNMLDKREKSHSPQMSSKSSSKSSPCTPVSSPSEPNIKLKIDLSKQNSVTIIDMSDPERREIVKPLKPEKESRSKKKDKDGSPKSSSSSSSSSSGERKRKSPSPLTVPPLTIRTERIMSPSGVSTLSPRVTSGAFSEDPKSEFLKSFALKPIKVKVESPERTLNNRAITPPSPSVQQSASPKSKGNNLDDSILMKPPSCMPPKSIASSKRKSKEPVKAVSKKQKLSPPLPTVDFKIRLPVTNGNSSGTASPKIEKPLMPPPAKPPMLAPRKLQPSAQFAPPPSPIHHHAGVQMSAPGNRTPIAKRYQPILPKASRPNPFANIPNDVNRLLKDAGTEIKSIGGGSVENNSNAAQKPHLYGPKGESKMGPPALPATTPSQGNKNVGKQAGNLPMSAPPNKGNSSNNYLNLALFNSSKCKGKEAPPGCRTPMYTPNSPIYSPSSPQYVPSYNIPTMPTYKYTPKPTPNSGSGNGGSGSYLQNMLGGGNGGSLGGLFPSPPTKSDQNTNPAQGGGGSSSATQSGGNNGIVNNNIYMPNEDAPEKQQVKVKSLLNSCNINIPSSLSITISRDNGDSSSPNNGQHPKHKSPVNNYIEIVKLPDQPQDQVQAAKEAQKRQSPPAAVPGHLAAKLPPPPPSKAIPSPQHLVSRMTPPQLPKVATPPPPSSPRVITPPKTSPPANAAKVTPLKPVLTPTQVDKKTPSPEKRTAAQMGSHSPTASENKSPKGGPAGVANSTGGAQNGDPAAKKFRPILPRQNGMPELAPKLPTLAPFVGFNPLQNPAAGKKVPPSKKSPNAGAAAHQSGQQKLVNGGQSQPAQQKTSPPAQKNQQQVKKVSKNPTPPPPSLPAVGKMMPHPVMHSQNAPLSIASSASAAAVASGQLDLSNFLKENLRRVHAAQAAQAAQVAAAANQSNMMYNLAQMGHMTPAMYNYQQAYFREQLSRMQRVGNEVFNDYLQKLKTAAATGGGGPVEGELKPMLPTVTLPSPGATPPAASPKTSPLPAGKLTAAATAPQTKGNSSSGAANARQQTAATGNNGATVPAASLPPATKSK
UniProt Q24572: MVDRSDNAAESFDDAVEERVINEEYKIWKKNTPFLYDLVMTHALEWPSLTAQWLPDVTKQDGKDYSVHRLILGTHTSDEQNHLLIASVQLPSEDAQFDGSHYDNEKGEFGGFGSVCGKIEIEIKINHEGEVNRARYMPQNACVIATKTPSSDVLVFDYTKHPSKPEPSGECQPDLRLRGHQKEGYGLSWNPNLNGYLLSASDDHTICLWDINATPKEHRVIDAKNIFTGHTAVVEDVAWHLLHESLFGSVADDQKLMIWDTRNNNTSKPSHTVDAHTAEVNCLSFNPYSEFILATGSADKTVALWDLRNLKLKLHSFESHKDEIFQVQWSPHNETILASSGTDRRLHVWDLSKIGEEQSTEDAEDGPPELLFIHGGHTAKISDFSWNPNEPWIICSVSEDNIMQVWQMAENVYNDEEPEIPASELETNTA

B1: Pc (protein, UniProt P26017 1-390)
chain: MTGRGKGSKGKLGRDNATDDPVDLVYAAEKIIQKRVKKGVVEYRVKWKGWNQRYNTWEPEVNILDRRLIDIYEQTNKSSGTPSKRGIKKKEKEPDPEPESEEDEYTFTENDVDTHQATTSSATHDKESKKEKKHHHHHHHHHHIKSERNSGRRSESPLTHHHHHHHHESKRQRIDHSSSSNSSFTHNSFVPEPDSNSSSSEDQPLIGTKRKAEVLKESGKIGVTIKTSPDGPTIKPQPTQQVTPSQQQPFQDQQQAEKIASEAATQLKSEQQATPLATEAINTTPAESGAEEEEVANEEGNQQAPQVPSENNNIPKPCNNLAINQKQPLTPLSPRALPPRFWLPAKCNISNRVVITDVTVNLETVTIRECKTERGFFRERDMKGDSSPVA
B2: Su(Z)12 (protein, UniProt Q9NJG9 1-900)
chain: MAPAKKREKDSNPDGSAANGIIGLTHGAPDASNAGSTVPPTAEGQVKLNGHQQEQELFLQAFEKPTQIYRYLRNRHETNPIFLNRTLSYMKERMSRNNKKRISFQVNSMLESITQKSEAVSQNYLHVIYDSLHEKLPARLDNESGEDLLQEQLLCEAGESVSVETTLYKITRSKRKDSTLDFQELLSKCSQIVYNPKDRVGEHATISIPLQTMRPMGEQHTLYKLLFRIKVLSPSTCNDENAETPPNKRSRPNEKMFGSELILYEKSSGFITEGEYEAMLQPLNSTSIKSFSPKKCTWETMPDSYIPLSLTYDVYQQSPMLKFHLTLSNEQLPEMISAPELQRYVQHLDAVAEMNYNNNNYNNNNNCSGLKNGSGGGNSTVCKTTPEHIQIVYNFMYSNNTRQQTEYTQELNCPWCGLDCLRLYALLKHLKLCHARFNFTYQPAGSGARIDVTINDAYDGSYAGSPYDLAGPSGSSFARTCGPVRRTSVTSLMVCRPRRQKTCLDEFLELDEDEISNQRSYITGHNRLYHHTETCLPVHPKELDIDSEGESDPLWLRQKTIQMIDEFSDVNEGEKELMKLWNLHVMRHGFVGDCQLPIACEMFLDAKGTEIVRKNLYRNFILHMCSLFDYGLIAAETVYKTVQKLQGLLSKYAAGQELMQRQREEQLKYWLDVGMHKKQEDPKTLKSPQKPAPPADQASTSSASTSGSGSGSSSMQPPKRMPAHLKRGSAASSPGVQSKGTENGTNGSNSSSSNSKNVAKKSADQPLSTLANTRERRSEYGQKRNVSGSRLAATPASKRKLSSKDNTVLNKRQRYSDGSPGTGIGNGHGGGSGSGANRNKSNNHSLPATSNNASSSSSNSKRAIARRRSTSERTKASGSTGGGAGGVRTRLSVPAKYERR
B3: ACF1 (protein, UniProt Q9V9T4 1-1476)
chain: MPICKREGFDLNQKEGKNETFHDNDQVFCCYITKRIFRDYEHYFRHVMVINSTVWQCEATGKENLTYEEAVKSERAARKKMEQFKQSLRAPVLLVVEHAQQSAVNTLNMIVAKFLRKRYFIGEEVSVQAKKNATYTVLGVKLDKNMPEPLNGIYEDTDNLVYRLRPNKGDPSAELDLPFRQLRRSRMEFNLENLSMFIKSNVSRVDGLLRPKPEAYKQYVTDPGVNFSTIFIGKMPRYSPAKIKKPDGKKQSTLNKYIVAGEATAAKSKAKAKSDAKSLAEELERVKREKEAKLIELEKQKAEKKAQLIERVENECNLLLQKTDDLERTDQKVLPRYRQIVTLLPEHLLGDAFMMREFMHTYTGLLSGIEVFRQNLSFYEMTRALTAREIAGPLSDILLVLLGTVFDLQKEEEEECAVTYLDRAAQTQEPYWSMAQAAKSHLYAKRHFSFKVNELPLDALTLSEVLRLHLLGSGAFVNEKAERWRVMYRNGYSSKEDPGLELRLEHSHILRILKNHSVYQLKFKDIMLLIRCLMSQIMTYSGTINLIEERMEQTAKARQDLRALVVGENKRLAAVEINRKKLTQMHHLEVNGVEPEKREALVEKLKKSIAELHAQSDQQHRKHELQMLKLHSQLFNFLVYLGMDRCYRKYYVLESMPGIFVEHSPDSLDTCLEQPITNKSQIEIRQQSALPKNRKDLRVYLLKLYGDDEKKTKKKAKHSLENKENQEHRLNGSAEPMDVESDSPEAPTHFELLMCSGDKRSCIVHDSRNGQRQRWAYIYKAEEIDELIKALNPNGLREYELLQELSVLRSLIEQHAKTCPVDLLSLENETMRKKFMAAMESETNRKYGEANFGLPNGTDLNEVMRLHLVDRIIQFENDIYTGDLGRLKVKDMEKWRSDLLGGNYDAQCKLQWGPGGKLEDEAGSDNESHETHEEDDGALLGKYARKPYRDPGMYLAASADTKPLPDSDDEEDQHTNAVSIPIAVHNMASALLQVEQAIGKRFLKEPYGMKKWDPKQEALKLACDSRLHQWEVSLMESTSFAQVFLHLNILHDCIQWRRSTNKSLCKVCRRGSDPEKMLLCDECNAGTHMFCLKPKLRSVPPGNWYCNDCVKSLGLSNGQNEKDKKQATKKKRKFIVEEEDDEATDEEEEEKKDDDMTDEDAEHENEKHDEDVEDDESVTSTPSSSRVNGRILRRPRTRPTSRRLTSKEIEEHAQEDVDSGDVSDDASLTAGEDTIEDESDEEKVCQKCFYDGGEIKCVQCRLFFHLECVHLKRPPRTDFVCKTCKPMPQRPRRRHSNMNGDHDRDEEEPKAKRPRNSLRLSIDKTARPSNGNNNNNNNNSSVNNNNHRRSGRRTNEHMPLNSAALYDLLEQIMKHKAAWPFLRPVLTSEVPDYHQIIKTPMDLAKIKSKLNMGAYQLNEELLSDIQLVFRNCDLYNVEGNEIYDAGCQLERFVIDRCRDMQLPFRPSDMNGEVKAC
B4: dRING (protein, UniProt Q9VB08 1-435)
chain: MTSLDPAPNKTWELSLYELQRKPQEVITDSTEIAVSPRSLHSELMCPICLDMLKKTMTTKECLHRFCSDCIVTALRSGNKECPTCRKKLVSKRSLRADPNFDLLISKIYPSREEYEAIQEKVMAKFNQTQSQQALVNSINEGIKLQSQNRPQRFRTKGGGGGGGGGGNGNGAANVAAPPAPGAPTAVGRNASNQMHVHDTASNDSNSNTNSIDRENRDPGHSGTSAASAITSASNAAPSSSANSGASTSATRMQVDDASNPPSVRSTPSPVPSNSSSSKPKRAMSVLTSERSEESESDSQMDCRTEGDSNIDTEGEGNGELGINDEIELVFKPHPTEMSADNQLIRALKENCVRYIKTTANATVDHLSKYLAMRLTLDLGADLPEACRVLNFCIYVAPQPQQLVILNGNQTLHQVNDKFWKVNKPMEMYYSWKKT

What was measured:
[1] = molecular target: T1, Mini-Ph (Drosophila melanogaster) (UniProt P39769); assay: co-sedimentation
T1 sequence: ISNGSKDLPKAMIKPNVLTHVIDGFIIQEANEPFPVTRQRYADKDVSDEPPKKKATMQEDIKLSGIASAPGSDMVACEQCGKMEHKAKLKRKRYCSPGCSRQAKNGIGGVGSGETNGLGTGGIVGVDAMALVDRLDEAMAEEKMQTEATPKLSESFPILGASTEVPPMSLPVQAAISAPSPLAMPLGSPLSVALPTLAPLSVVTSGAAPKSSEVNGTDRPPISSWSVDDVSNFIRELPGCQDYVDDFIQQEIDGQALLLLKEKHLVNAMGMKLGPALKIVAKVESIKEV

Flag-PSC (Drosophila) = Flag-PSC (Drosophila) (UniProt P35820); assay: co-IP

Molecule	binding [1]	binding (Flag-PSC (Drosophila))
p55 (from UniProt Q24572 1-430)	no binding	–
B1	–	binds
B2	no binding	–
B3	no binding	–
B4	–	binds
